In the supplement of paper PMC10849652:
This is one part of the list.

Chains of the proteins cited; added tags and fusions are not shown. Lines headed by an entry give the natural chain unless they say otherwise; changes in a name come on top.
UniProt Q9NTX7: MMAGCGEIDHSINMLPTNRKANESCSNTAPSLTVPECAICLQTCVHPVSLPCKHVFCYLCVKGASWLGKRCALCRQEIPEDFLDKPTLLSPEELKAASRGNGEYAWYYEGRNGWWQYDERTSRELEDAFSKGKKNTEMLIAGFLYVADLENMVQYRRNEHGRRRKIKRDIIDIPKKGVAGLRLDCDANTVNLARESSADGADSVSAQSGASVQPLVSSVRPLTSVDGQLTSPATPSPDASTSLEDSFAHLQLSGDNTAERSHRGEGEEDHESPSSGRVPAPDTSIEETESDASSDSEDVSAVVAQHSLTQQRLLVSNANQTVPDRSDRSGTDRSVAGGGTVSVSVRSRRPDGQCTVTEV
UniProt Q8IXW5, whole entry, looked up: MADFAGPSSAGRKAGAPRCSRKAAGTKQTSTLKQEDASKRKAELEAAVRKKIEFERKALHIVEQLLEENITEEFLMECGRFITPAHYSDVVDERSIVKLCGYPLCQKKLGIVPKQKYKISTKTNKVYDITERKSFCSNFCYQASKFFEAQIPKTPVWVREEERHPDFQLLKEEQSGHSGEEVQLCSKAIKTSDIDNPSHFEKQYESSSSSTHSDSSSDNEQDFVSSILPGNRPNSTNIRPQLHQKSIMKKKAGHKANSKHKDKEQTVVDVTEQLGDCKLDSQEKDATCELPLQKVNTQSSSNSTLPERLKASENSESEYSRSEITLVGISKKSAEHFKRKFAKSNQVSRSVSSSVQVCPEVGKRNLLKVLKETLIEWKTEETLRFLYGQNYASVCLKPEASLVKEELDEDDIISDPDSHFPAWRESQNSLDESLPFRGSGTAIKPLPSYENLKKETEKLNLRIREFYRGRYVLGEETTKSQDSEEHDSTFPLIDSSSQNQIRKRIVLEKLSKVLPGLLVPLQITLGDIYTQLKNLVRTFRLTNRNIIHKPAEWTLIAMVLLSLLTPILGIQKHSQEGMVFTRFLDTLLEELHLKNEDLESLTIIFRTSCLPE
UniProt P0C7M4: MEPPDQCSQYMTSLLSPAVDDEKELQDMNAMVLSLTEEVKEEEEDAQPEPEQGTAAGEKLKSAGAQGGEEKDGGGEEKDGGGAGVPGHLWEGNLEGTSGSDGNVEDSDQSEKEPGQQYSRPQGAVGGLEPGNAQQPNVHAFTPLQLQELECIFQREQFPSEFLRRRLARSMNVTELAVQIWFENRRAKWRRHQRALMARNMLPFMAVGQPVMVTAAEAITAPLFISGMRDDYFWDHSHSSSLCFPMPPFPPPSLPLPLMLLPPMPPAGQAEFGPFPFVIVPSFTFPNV
UniProt P13489: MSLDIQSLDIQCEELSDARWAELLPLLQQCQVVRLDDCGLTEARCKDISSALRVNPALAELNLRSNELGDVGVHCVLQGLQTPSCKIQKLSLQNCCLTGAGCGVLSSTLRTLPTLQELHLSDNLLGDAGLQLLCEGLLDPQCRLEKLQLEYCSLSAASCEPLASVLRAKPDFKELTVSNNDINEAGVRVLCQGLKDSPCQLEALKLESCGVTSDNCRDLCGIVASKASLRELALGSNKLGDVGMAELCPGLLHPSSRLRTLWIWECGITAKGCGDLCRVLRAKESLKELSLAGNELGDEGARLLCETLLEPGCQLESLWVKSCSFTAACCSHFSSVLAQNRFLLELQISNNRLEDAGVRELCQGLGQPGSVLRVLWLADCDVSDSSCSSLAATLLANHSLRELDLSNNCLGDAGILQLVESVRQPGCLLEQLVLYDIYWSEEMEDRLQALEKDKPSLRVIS
UniProt O60942: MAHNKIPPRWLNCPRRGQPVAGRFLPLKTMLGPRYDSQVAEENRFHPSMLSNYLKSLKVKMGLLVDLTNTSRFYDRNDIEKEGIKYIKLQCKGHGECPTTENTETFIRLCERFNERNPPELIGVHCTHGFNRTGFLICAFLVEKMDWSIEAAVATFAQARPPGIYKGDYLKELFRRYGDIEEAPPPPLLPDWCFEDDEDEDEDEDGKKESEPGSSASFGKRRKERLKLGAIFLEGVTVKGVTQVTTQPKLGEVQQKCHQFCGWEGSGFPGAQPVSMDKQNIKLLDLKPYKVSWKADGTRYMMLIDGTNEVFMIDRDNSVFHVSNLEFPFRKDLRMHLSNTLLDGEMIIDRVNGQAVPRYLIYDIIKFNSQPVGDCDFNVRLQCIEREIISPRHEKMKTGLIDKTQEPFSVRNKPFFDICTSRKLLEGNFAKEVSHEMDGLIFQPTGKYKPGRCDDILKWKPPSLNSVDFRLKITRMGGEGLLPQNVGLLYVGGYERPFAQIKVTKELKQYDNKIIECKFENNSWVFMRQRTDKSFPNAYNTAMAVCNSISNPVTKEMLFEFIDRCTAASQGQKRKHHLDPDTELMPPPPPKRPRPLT
UniProt Q5VTR2, whole entry, looked up: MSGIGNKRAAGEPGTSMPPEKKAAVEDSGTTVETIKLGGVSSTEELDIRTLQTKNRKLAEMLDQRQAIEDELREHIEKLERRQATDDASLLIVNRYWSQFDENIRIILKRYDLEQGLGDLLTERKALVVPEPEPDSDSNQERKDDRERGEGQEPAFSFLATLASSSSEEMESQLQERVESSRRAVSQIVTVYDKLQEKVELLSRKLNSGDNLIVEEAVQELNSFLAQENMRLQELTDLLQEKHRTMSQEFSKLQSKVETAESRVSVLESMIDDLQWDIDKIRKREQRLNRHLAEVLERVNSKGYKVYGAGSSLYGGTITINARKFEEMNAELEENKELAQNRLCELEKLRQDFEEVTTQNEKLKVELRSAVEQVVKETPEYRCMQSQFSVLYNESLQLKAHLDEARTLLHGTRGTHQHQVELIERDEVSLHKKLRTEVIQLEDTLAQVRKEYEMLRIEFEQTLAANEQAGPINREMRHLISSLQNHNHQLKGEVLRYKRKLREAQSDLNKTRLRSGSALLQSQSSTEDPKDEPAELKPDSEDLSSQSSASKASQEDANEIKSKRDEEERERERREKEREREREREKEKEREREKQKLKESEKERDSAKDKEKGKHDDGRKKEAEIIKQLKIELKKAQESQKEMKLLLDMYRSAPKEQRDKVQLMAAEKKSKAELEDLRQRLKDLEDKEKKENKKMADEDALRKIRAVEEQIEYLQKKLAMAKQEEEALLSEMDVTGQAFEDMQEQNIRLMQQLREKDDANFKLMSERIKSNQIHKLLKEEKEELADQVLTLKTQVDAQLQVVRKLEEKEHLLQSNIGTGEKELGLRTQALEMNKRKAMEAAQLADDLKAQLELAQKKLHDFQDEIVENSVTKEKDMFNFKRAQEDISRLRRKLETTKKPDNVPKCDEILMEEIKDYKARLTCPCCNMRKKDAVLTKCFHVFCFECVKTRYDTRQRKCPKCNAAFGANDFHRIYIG
UniProt Q8NC42: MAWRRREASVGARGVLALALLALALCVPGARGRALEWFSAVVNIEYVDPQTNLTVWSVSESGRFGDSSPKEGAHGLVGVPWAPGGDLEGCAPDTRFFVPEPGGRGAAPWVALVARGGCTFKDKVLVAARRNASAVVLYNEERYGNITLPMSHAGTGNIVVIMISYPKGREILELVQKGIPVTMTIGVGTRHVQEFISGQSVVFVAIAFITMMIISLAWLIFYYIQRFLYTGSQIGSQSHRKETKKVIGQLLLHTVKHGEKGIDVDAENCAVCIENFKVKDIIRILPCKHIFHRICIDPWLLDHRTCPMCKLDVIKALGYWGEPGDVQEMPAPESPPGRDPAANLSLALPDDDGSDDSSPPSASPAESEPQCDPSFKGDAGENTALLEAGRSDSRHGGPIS
UniProt P34096: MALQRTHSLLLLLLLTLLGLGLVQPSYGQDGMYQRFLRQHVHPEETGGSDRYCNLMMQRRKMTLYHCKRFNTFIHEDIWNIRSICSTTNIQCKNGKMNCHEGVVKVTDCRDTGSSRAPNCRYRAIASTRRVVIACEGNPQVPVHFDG
UniProt P08134, whole entry, looked up: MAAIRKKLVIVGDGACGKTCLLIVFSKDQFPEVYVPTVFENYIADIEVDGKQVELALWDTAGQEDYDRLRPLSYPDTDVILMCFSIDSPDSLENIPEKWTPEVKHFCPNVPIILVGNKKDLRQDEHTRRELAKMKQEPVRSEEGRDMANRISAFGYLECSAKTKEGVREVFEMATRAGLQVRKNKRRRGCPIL
UniProt Q96A37: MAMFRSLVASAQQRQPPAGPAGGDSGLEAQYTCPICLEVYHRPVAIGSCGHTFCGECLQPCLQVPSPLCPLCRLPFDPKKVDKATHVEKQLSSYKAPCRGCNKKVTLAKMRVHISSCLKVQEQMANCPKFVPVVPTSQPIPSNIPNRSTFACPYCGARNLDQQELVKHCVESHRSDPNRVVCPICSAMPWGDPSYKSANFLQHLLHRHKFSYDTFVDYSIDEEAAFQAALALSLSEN
UniProt Q969K3: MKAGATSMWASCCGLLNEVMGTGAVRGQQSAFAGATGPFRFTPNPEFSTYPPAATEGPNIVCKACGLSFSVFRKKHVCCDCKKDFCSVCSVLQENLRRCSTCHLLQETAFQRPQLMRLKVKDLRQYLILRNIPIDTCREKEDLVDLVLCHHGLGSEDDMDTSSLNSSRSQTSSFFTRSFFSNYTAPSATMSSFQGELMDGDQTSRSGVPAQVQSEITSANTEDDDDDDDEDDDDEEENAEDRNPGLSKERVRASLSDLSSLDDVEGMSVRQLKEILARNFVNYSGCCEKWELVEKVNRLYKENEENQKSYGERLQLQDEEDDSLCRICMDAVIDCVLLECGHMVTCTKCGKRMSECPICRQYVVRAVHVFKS

Key:
Assay in all cases: log2 fold change, soluble protein after heating vs DMSO (PISA); higher = thermal stabilisation; K562 lysate, 10 uM; active = over 0.2 and 3.5 SD of the protein, either way, in both replicates (recomputed)
erlotinib = compound: C#Cc1cccc(Nc2ncnc3cc(OCCOC)c(OCCOC)cc23)c1 [erlotinib]
Summary of the method: (§1)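 K562 pellets were dounce-homogenised in PBS pH 7.4 with 1 mM MgCl2, and the crude extract at 1 mg/mL protein was treated with 10 μM compound for 30 min. Aliquots were heated for 3 min across 48°C-58°C, pooled, and brought to 0.5% NP-40 at 4°C; soluble protein was the supernatant after 21,000xg for 90 min. Soluble protein was quantified by TMTpro 16plex LC-MS/MS with channel sums equalised, and reported as log2 fold change in thermal stability against DMSO controls, with values from duplicates.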

[1] = compound: C/C(=N\NC(=O)C1=CC(=CC=C1)S(=O)(=O)N2CCOCC2)/C3=C(C=CC(=C3)Cl)O
Summary of the method: as §1

[2] = compound: C1=CC(=CC=C1C2=NC3=C(N2)C=C(C=C3)C(=O)N)OC4=CC=C(C=C4)Cl
Summary of the method: as §1

[3] = compound: C1=CC2=C(C=CC(=C2)/C=C\3/C(=O)NC(=NCC4=CC=CS4)S3)N=C1
Summary of the method: as §1

[4] = compound: C1=CC2=NC=CN=C2C=C1/C=C/3\C(=O)NC(=O)S3
Summary of the method: as §1

[5] = compound: C1=CC=C(C=C1)C2=NC(=C(N2)C3=CC=NC=C3)C4=CC(=C(C=C4)Cl)O
Summary of the method: as §1

[6] = compound: C1=CC=C2C(=C1)C3=NNC4=CC=CC(=C43)C2=O
Summary of the method: as §1

[7] = compound: C1CCN(C1)C(=O)NC2=CC=CC(=C2)NC3=NC=C(C(=N3)NCCC4=CN=CN4)Br
Summary of the method: as §1

[8] = compound: C1CN(CCC1(CC2=CC=C(C=C2)Cl)N)C3=NC=NC4=C3C=CN4
Summary of the method: as §1

IRAK-1-4 Inhibitor I = compound: C1COCCN1CCN2C3=CC=CC=C3N=C2NC(=O)C4=CC(=CC=C4)[N+](=O)[O-] [IRAK-1-4 Inhibitor I]
Summary of the method: as §1

ibrutinib = compound: C=CC(=O)N1CCC[C@@H](n2nc(-c3ccc(Oc4ccccc4)cc3)c3c(N)ncnc32)C1 [ibrutinib]
Summary of the method: as §1

[9] = compound: CC(=O)c1cnc2ccc(-c3cc(Cl)c(O)c(Cl)c3)nc2c1N[C@H]1CC[C@H](CN(C)C)CC1
Summary of the method: as §1

ralimetinib = compound: CC(C)(C)Cn1c(N)nc2ccc(-c3[nH]c(C(C)(C)C)nc3-c3ccc(F)cc3)nc21 [ralimetinib]
Summary of the method: as §1

[10] = compound: CC(C)(O)CC(=O)NCCn1ccc2ncnc(Nc3ccc(Oc4cccc(C(F)(F)F)c4)c(Cl)c3)c21
Summary of the method: as §1

[11] = compound: CC(C)C1=C2N=C(C=C(N2N=C1)NCC3=CC=CC=C3)NCCCCCCN
Summary of the method: as §1

[12] = compound: CC1=C(C(CC(=O)N1)C2=CC=C(C=C2)C(F)(F)F)C(=O)NC3=C(C=C4C(=C3)C=NN4)F
Summary of the method: as §1

[13] = compound: CC1=C(C2=C(C=C1)C(=O)C3=CC=CC=C3N2CCCN)C
Summary of the method: as §1

[14] = compound: CC1=C(C=C(C=C1)NC(=O)C2=CC(=CC=C2)C(C)(C)C#N)NC3=CC4=C(C=C3)N=CN(C4=O)C
Summary of the method: as §1

[15] = compound: CC1=C(C=C(C=C1)NC(=O)C2=CC(=CC=C2)N(C)C)NC(=O)C3=CC=C(C=C3)O
Summary of the method: as §1

[16] = compound: CC1=CC=C(C=C1)SC2=C3C=C(SC3=CN=C2)C(=O)N
Summary of the method: as §1

Measured: log2 fold change

RNF146 (UniProt Q9NTX7)
inactive: erlotinib -0.019 | [1] 0.01 | [2] 0.048 | [3] 0.025 | [4] 0.007 | [5] 0.07 | [6] -0.018 | [7] 0.003 | [8] 0.021 | IRAK-1-4 Inhibitor I 0.019 | ibrutinib 0.045 | [9] 0.05 | ralimetinib -0.025 | [10] -0.048 | [11] -0.072 | [12] -0.07 | [13] 0.04 | [14] -0.006 | [15] -0.03 | [16] -0.047

RPAP2 (UniProt Q8IXW5)
inactive: erlotinib 0.024 | [1] 0.005 | [2] 0.035 | [3] 0.023 | [4] -0.048 | [5] -0.008 | [6] -0.03 | [7] -0.028 | [8] 0.029 | IRAK-1-4 Inhibitor I 0.037 | ibrutinib 0.015 | [9] 0.008 | ralimetinib 0.006 | [10] -0.04 | [11] 0.014 | [12] 0.011 | [13] -0.019 | [14] -0.005 | [15] 0.049 | [16] 0.008

RHOXF2B (UniProt P0C7M4)
inactive: erlotinib -0.153 | [1] 0.077 | [2] -0.181 | [3] 0.012 | [5] 0.031 | [6] 0.194 | IRAK-1-4 Inhibitor I 0.07 | [9] -0.05 | ralimetinib -0.016 | [10] -0.052 | [11] 0.221 | [13] -0.117 | [15] -0.053 | [16] 0.107

RNH1 (UniProt P13489)
inactive: erlotinib -0.015 | [1] 0.042 | [2] 0.005 | [3] -0.031 | [4] 0.026 | [5] 0.054 | [6] -0.022 | [7] 0.024 | [8] 0 | IRAK-1-4 Inhibitor I -0.013 | ibrutinib 0.003 | [9] -0.025 | ralimetinib -0.049 | [10] 0.035 | [11] 0.064 | [12] -0.041 | [13] 0.02 | [14] 0.115 | [15] -0.064 | [16] -0.006

RPL15 (UniProt P61313)
inactive: erlotinib -0.005 | [1] -0.103 | [2] -0.016 | [3] 0.004 | [4] -0.022 | [5] 0 | [6] 0.051 | [7] 0.011 | [8] -0.052 | IRAK-1-4 Inhibitor I -0.019 | ibrutinib 0.003 | [9] -0.006 | ralimetinib 0.038 | [10] 0.008 | [11] -0.007 | [12] -0.014 | [13] 0.014 | [14] -0.002 | [15] -0.005 | [16] 0

RNGTT (UniProt O60942)
inactive: erlotinib -0.061 | [1] -0.021 | [2] 0.008 | [3] 0.003 | [4] 0.124 | [5] 0.002 | [6] -0.026 | [7] -0.004 | [8] -0.056 | IRAK-1-4 Inhibitor I -0.04 | ibrutinib -0.158 | [9] -0.012 | ralimetinib 0.053 | [10] 0.041 | [11] -0.083 | [12] -0.014 | [13] -0.007 | [14] -0.018 | [15] 0.039 | [16] 0.006

RNF20 (UniProt Q5VTR2)
inactive: erlotinib -0.003 | [1] 0.019 | [2] 0.018 | [3] 0.005 | [4] -0.027 | [5] 0.024 | [6] -0.017 | [7] -0.006 | [8] -0.007 | IRAK-1-4 Inhibitor I 0.011 | ibrutinib 0.012 | [9] -0.002 | ralimetinib -0.002 | [10] -0.038 | [11] -0.011 | [12] -0.013 | [13] 0.003 | [14] -0.006 | [15] -0.002 | [16] -0.015

RNF149 (UniProt Q8NC42)
inactive: erlotinib -0.044 | [1] -0.03 | [2] 0.003 | [3] -0.046 | [4] 0.135 | [5] -0.021 | [6] -0.031 | IRAK-1-4 Inhibitor I 0.068 | ibrutinib 0.04 | [9] 0.023 | ralimetinib 0.044 | [10] -0.041 | [11] -0.005 | [12] -0.021 | [13] 0.001 | [14] -0.014 | [15] 0.113 | [16] 0.06

RNASE4 (UniProt P34096)
inactive: erlotinib -0.096 | [1] -0.012 | [2] 0.06 | [3] 0.056 | [5] -0.006 | [6] -0.015 | [7] -0.174 | [8] 0.16 | IRAK-1-4 Inhibitor I 0.057 | [9] -0.03 | ralimetinib 0.045 | [10] -0.072 | [11] -0.104 | [12] 0 | [13] -0.018 | [14] 0.003 | [15] 0.076 | [16] -0.017

RHOC (UniProt P08134)
inactive: erlotinib -0.013 | [1] 0.025 | [2] -0.007 | [3] -0.009 | [4] 0.013 | [5] 0.01 | [6] 0.065 | [7] -0.004 | [8] -0.022 | IRAK-1-4 Inhibitor I -0.002 | ibrutinib 0.016 | [9] 0.001 | ralimetinib 0.045 | [10] 0.094 | [11] -0.027 | [12] -0.066 | [13] 0.064 | [14] 0.009 | [15] -0.028 | [16] 0.044

RPL30 (UniProt P62888)
inactive: erlotinib -0.003 | [1] 0 | [2] -0.032 | [3] 0.021 | [4] -0.001 | [5] 0.037 | [6] 0.053 | [7] 0.025 | [8] -0.016 | IRAK-1-4 Inhibitor I 0.023 | ibrutinib 0.013 | [9] -0.017 | ralimetinib 0.004 | [10] 0 | [11] -0.006 | [12] 0.023 | [13] -0.026 | [14] -0.014 | [15] -0.021 | [16] 0.015

RPL36A (UniProt P83881)
inactive: erlotinib 0.076 | [1] -0.024 | [2] 0.006 | [3] -0.05 | [4] -0.028 | [5] -0.001 | [6] -0.001 | [7] -0.001 | [8] 0.014 | IRAK-1-4 Inhibitor I -0.075 | ibrutinib -0.129 | [9] -0.034 | ralimetinib -0.009 | [10] -0.039 | [11] 0.05 | [12] -0.062 | [13] 0.003 | [14] 0.083 | [15] 0.056 | [16] 0.024

RPL18 (UniProt Q07020)
inactive: erlotinib -0.032 | [1] -0.094 | [2] 0.026 | [3] -0.01 | [4] -0.045 | [5] 0 | [6] -0.005 | [7] -0.023 | [8] -0.03 | IRAK-1-4 Inhibitor I -0.018 | ibrutinib -0.016 | [9] -0.017 | ralimetinib -0.044 | [10] -0.002 | [11] 0.011 | [12] -0.036 | [13] -0.006 | [14] -0.014 | [15] 0.03 | [16] 0.016

RPL22 (UniProt P35268)
inactive: erlotinib 0.007 | [1] 0.04 | [2] -0.003 | [3] -0.036 | [4] -0.005 | [5] -0.01 | [6] -0.018 | [7] 0.037 | [8] -0.022 | IRAK-1-4 Inhibitor I 0.007 | ibrutinib -0.039 | [9] -0.002 | ralimetinib -0.044 | [10] -0.039 | [11] 0.022 | [12] -0.034 | [13] -0.034 | [14] -0.009 | [15] 0.001 | [16] 0.041

RNF166 (UniProt Q96A37)
inactive: erlotinib -0.142 | [1] -0.035 | [2] 0.109 | [3] 0.086 | [4] -0.293 | [5] 0.112 | [6] -0.055 | [7] -0.024 | [8] -0.053 | IRAK-1-4 Inhibitor I 0.078 | ibrutinib -0.013 | [9] 0.063 | ralimetinib -0.028 | [10] 0.033 | [11] -0.02 | [12] 0.062 | [13] -0.163 | [14] 0.137 | [15] 0.043 | [16] -0.067

RPL10A (UniProt P62906)
inactive: erlotinib 0.017 | [1] -0.051 | [2] -0.016 | [3] 0.017 | [4] 0.024 | [5] 0.036 | [6] 0.051 | [7] 0.011 | [8] -0.024 | IRAK-1-4 Inhibitor I 0.028 | ibrutinib -0.028 | [9] -0.003 | ralimetinib -0.015 | [10] 0.009 | [11] 0.017 | [12] -0.013 | [13] -0.017 | [14] 0 | [15] 0.004 | [16] 0.03

Reprinted from the entries so far (2 entries):
RPL22 (UniProt P35268)
inactive: erlotinib 0.007 | [1] 0.04 | [2] -0.003 | [3] -0.036 | [4] -0.005 | [5] -0.01 | [6] -0.018 | [7] 0.037 | [8] -0.022 | IRAK-1-4 Inhibitor I 0.007 | ibrutinib -0.039 | [9] -0.002 | ralimetinib -0.044 | [10] -0.039 | [11] 0.022 | [12] -0.034 | [13] -0.034 | [14] -0.009 | [15] 0.001 | [16] 0.041

RNF166 (UniProt Q96A37)
inactive: erlotinib -0.142 | [1] -0.035 | [2] 0.109 | [3] 0.086 | [4] -0.293 | [5] 0.112 | [6] -0.055 | [7] -0.024 | [8] -0.053 | IRAK-1-4 Inhibitor I 0.078 | ibrutinib -0.013 | [9] 0.063 | ralimetinib -0.028 | [10] 0.033 | [11] -0.02 | [12] 0.062 | [13] -0.163 | [14] 0.137 | [15] 0.043 | [16] -0.067

Additional results:

RNF34 isoform 2 (UniProt Q969K3)
inactive: erlotinib 0.042 | [1] 0.037 | [2] 0.101 | [3] 0.058 | [4] -0.151 | [5] -0.196 | [6] 0.025 | [7] -0.03 | [8] -0.033 | IRAK-1-4 Inhibitor I -0.085 | ibrutinib 0.072 | [9] 0.008 | ralimetinib 0.08 | [10] -0.003 | [11] 0 | [12] -0.099 | [13] -0.011 | [14] 0.123 | [15] 0.107 | [16] 0.026
